Assay results: PubChem BioAssay AID248 (DTP/NCI, 2004)
The list shows only some results of the screen, not a fair sample: it gathers tests that were run many times, whatever their T/C, doses with no T/C, and many T/C values between a quarter and a half above the control. Further doses and runs are listed elsewhere. T/C is the treated group as % of the vehicle group. Some doses have a count of surviving animals in place of a T/C: the source holds a T/C of zero for them, seemingly a mark for toxic or unscored doses. Some doses without a T/C left all or most animals alive at the check, yet need not have been tolerated: the source hardly ever lists a survival T/C far under the control, and the zero likely stands for such cases as well. Survivors were counted at the toxicity check, usually on the fifth day, unless a day is given; later deaths do not show. Schedule codes are those of the source, taken here to give the interval after Q, in days (D) or hours (H), and the number of doses after X. Some entries hold several experiments; their values stand side by side, smallest first. For survival time, this PubChem deposit counts one and a half times the control or more as active, and values a quarter to a half above the control carry no call in these data; other NCI protocols may use other cut-offs. Some T/C values are followed by the survivors on the day toxicity was checked, most often the fifth; where none is given, no animal had died by that day.

Test system: L1210 leukemia ip in BDF1 mice, survival T/C
Assay: NCI In Vivo Anticancer Drug Screen. Data for tumor model L1210 Leukemia (intraperitoneal) in B6D2F1 (BDF1) mice
Settings: T/C endpoint: mean survival time, higher T/C = longer survival

With `O=C(/C=C1\C(=O)Nc2ccccc21)/C=C1/C(=O)Nc2ccccc21` the survivor count (dose: 200.0 mg/kg/injection, schedule: Q01DX009 (ip), vehicle: Klucel (hydroxypropylcellulose) (HPC)) was 3 of 6 and the survivor count (dose: 400.0 mg/kg/injection, schedule: Q01DX009 (ip), vehicle: Klucel (hydroxypropylcellulose) (HPC)) was 0 of 6.

In the case of `CC(C)c1ccc(/C=C2\CSC/C(=C/c3ccc(C(C)C)cc3)C2=O)cc1`, the survivor count (dose: 50.0 mg/kg/injection, schedule: Q01DX009 (ip), vehicle: saline) is reported as 5 of 6, the survivor count (dose: 100.0 mg/kg/injection, schedule: Q01DX001 (ip), vehicle: saline) is reported as 6 of 6 and the survivor count (dose: 100.0 mg/kg/injection, schedule: Q01DX009 (ip), vehicle: saline) is reported as 4 of 6. The survivor count (dose: 400.0 mg/kg/injection, schedule: Q01DX001 (ip), vehicle: saline) was 6 of 6.

With `CC(C)CCNc1ncnc2[nH]ncc12` the survivor count (dose: 75.0 mg/kg/injection, schedule: Q01DX009 (ip), vehicle: Klucel (hydroxypropylcellulose) (HPC)) was 3 of 6, the survivor count (dose: 115.0 mg/kg/injection, schedule: Q01DX009 (ip), vehicle: Klucel (hydroxypropylcellulose) (HPC)) was 0 of 6 and the survivor count (dose: 170.0 mg/kg/injection, schedule: Q01DX009 (ip), vehicle: Klucel (hydroxypropylcellulose) (HPC)) was 0 of 6.

`COc1ccc(-n2c(=O)c(N=Nc3ccccc3OC)c(O)n(-c3ccccc3C)c2=S)cc1` was tested, and the survivor count (dose: 400.0 mg/kg/injection, schedule: Q01DX001 (ip), vehicle: Klucel (hydroxypropylcellulose) (HPC)) was 3 of 6.

In the case of `O=C1C(N2CC2)=C(N2CC2)C(=O)C(N2CC2)=C1N1CC1`, the T/C (dose: 0.01 mg/kg/injection, schedule: Q01DX009 (ip), vehicle: saline) is reported as 149 % of control, the T/C (dose: 0.02 mg/kg/injection, schedule: Q01DX009 (ip), vehicle: saline) is reported as 133 % of control and the survivor count (dose: 0.04 mg/kg/injection, schedule: Q01DX009 (ip), vehicle: saline) is reported as 6 of 6. The survivor count (dose: 0.08 mg/kg/injection, schedule: Q01DX009 (ip), vehicle: saline) was 6 of 6, the T/C (dose: 0.12 mg/kg/injection, schedule: Q01DX009 (ip), vehicle: saline) was 138 % of control and the T/C (dose: 0.25 mg/kg/injection, schedule: Q01DX001 (ip), vehicle: saline) was 134 % of control. The survivor count (dose: 0.25 mg/kg/injection, schedule: Q01DX009 (ip), vehicle: saline) was 6 of 6, the T/C (dose: 0.5 mg/kg/injection, schedule: Q01DX001 (ip), vehicle: saline) was 131 % of control [5 of 6 alive] and the survivor count (dose: 0.5 mg/kg/injection, schedule: Q01DX009 (ip), vehicle: saline) was 3 of 6. For the same compound, the survivor count (dose: 1.0 mg/kg/injection, schedule: Q01DX001 (ip), vehicle: saline) was 4 of 6, the survivor count (dose: 1.0 mg/kg/injection, schedule: Q01DX009 (ip), vehicle: saline) was 4 of 6 and the survivor count (dose: 2.5 mg/kg/injection, schedule: Q01DX001 (ip), vehicle: saline) was 0 of 6. For the same compound, the survivor count (dose: 5.0 mg/kg/injection, schedule: Q01DX001 (ip), vehicle: saline) was 0 of 6, the survivor count (dose: 10.0 mg/kg/injection, schedule: Q01DX001 (ip), vehicle: saline) was 1 of 6 and the survivor count (dose: 20.0 mg/kg/injection, schedule: Q01DX001 (ip), vehicle: saline) was 0 of 6. For the same compound, the survivor count (dose: 40.0 mg/kg/injection, schedule: Q01DX001 (ip), vehicle: saline) was 0 of 6, the survivor count (dose: 75.0 mg/kg/injection, schedule: Q01DX001 (ip), vehicle: saline) was 0 of 6 and the survivor count (dose: 150.0 mg/kg/injection, schedule: Q01DX001 (ip), vehicle: saline) was 0 of 6. The survivor count (dose: 300.0 mg/kg/injection, schedule: Q01DX001 (ip), vehicle: saline) was 0 of 6.

`Cc1cc(NC(=S)Nc2ccccc2)c(NC(=S)Nc2ccccc2)cc1C` was tested, and the survivor count (dose: 200.0 mg/kg/injection, schedule: Q01DX005 (ip), vehicle: Klucel (hydroxypropylcellulose) (HPC)) was 2 of 3 and 3 of 3, the survivor count (dose: 225.0 mg/kg/injection, schedule: Q01DX009 (ip), vehicle: Klucel (hydroxypropylcellulose) (HPC)) was 1 of 3 and the survivor count (dose: 400.0 mg/kg/injection, schedule: Q01DX005 (ip), vehicle: Klucel (hydroxypropylcellulose) (HPC)) was 1 of 3.
